# In article PMC12058146:
# Chains of the proteins cited; added tags and fusions are not shown. Lines headed by an entry give the natural chain unless they say otherwise; changes in a name come on top.
# UniProt A1ZAW0: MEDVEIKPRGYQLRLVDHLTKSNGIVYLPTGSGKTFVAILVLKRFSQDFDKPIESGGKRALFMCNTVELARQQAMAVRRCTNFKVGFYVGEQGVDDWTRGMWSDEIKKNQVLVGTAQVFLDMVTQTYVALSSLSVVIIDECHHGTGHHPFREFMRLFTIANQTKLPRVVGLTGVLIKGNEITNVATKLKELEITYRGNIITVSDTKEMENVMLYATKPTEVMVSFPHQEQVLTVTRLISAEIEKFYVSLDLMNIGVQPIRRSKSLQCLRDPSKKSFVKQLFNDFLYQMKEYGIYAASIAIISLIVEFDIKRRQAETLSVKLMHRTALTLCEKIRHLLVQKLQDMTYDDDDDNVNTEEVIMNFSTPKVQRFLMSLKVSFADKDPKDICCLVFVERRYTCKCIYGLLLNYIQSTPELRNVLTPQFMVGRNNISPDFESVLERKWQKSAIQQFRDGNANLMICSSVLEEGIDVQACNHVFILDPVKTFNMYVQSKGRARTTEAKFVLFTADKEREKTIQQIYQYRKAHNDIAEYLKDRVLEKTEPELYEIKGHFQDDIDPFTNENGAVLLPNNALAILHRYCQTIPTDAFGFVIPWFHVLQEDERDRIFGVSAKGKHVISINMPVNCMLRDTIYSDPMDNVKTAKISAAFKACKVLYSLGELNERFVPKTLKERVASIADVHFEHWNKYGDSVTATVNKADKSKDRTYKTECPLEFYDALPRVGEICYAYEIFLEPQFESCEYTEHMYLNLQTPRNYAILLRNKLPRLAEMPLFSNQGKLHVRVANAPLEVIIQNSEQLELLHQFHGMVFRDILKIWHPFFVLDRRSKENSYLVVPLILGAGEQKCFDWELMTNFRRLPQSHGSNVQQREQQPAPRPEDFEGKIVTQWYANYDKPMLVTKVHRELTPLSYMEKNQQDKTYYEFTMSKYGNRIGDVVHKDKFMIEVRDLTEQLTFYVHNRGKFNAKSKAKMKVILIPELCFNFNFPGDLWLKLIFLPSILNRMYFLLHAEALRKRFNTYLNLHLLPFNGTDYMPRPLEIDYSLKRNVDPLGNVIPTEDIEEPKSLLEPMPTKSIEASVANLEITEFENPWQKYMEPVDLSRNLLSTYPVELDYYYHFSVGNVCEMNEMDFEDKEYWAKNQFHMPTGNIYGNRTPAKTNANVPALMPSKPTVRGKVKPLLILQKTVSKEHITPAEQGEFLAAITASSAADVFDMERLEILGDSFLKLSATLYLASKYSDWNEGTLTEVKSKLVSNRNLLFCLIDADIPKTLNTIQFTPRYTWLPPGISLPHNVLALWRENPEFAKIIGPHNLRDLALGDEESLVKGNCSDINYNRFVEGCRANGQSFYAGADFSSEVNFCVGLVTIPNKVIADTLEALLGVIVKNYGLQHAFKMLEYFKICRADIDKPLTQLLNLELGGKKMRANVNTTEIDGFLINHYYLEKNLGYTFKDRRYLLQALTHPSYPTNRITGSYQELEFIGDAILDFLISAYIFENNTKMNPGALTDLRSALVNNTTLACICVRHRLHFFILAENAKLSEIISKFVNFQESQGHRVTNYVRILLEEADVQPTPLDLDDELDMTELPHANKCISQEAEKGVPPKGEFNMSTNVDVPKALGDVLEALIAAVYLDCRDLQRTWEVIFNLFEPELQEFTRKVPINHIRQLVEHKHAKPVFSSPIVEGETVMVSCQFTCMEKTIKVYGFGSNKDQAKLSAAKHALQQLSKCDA
# UniProt Q9VN21: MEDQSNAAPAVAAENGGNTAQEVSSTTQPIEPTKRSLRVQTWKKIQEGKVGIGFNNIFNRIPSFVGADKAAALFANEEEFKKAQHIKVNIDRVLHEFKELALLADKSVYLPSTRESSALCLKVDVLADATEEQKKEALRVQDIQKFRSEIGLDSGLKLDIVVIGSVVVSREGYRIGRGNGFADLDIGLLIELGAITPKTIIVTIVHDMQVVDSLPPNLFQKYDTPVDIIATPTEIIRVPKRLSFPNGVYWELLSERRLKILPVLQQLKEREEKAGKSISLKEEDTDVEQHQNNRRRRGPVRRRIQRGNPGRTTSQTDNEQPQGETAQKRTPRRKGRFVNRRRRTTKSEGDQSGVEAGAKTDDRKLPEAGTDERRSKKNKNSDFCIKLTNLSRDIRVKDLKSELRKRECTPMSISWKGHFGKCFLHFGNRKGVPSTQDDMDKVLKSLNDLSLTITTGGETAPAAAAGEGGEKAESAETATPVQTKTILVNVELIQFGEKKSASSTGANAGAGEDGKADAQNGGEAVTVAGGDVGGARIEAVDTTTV
# UniProt P19109: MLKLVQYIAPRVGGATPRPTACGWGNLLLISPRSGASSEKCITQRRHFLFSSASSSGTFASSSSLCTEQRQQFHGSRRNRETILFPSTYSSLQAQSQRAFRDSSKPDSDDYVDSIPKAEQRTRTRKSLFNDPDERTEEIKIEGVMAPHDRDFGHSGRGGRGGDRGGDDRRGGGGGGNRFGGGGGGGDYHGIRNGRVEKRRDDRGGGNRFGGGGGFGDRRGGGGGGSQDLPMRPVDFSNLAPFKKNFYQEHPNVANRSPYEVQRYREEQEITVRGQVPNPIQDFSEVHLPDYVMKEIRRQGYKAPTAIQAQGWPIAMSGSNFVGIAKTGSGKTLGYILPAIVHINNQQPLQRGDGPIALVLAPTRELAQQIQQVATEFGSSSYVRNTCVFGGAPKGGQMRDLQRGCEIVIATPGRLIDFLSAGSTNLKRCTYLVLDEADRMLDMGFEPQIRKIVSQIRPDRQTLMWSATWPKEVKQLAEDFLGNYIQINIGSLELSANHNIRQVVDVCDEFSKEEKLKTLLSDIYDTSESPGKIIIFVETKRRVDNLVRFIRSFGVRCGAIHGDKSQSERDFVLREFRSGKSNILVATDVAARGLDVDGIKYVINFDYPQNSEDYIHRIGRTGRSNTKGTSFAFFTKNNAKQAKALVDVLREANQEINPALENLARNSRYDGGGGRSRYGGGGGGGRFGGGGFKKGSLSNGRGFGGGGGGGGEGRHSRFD
# UniProt P28668: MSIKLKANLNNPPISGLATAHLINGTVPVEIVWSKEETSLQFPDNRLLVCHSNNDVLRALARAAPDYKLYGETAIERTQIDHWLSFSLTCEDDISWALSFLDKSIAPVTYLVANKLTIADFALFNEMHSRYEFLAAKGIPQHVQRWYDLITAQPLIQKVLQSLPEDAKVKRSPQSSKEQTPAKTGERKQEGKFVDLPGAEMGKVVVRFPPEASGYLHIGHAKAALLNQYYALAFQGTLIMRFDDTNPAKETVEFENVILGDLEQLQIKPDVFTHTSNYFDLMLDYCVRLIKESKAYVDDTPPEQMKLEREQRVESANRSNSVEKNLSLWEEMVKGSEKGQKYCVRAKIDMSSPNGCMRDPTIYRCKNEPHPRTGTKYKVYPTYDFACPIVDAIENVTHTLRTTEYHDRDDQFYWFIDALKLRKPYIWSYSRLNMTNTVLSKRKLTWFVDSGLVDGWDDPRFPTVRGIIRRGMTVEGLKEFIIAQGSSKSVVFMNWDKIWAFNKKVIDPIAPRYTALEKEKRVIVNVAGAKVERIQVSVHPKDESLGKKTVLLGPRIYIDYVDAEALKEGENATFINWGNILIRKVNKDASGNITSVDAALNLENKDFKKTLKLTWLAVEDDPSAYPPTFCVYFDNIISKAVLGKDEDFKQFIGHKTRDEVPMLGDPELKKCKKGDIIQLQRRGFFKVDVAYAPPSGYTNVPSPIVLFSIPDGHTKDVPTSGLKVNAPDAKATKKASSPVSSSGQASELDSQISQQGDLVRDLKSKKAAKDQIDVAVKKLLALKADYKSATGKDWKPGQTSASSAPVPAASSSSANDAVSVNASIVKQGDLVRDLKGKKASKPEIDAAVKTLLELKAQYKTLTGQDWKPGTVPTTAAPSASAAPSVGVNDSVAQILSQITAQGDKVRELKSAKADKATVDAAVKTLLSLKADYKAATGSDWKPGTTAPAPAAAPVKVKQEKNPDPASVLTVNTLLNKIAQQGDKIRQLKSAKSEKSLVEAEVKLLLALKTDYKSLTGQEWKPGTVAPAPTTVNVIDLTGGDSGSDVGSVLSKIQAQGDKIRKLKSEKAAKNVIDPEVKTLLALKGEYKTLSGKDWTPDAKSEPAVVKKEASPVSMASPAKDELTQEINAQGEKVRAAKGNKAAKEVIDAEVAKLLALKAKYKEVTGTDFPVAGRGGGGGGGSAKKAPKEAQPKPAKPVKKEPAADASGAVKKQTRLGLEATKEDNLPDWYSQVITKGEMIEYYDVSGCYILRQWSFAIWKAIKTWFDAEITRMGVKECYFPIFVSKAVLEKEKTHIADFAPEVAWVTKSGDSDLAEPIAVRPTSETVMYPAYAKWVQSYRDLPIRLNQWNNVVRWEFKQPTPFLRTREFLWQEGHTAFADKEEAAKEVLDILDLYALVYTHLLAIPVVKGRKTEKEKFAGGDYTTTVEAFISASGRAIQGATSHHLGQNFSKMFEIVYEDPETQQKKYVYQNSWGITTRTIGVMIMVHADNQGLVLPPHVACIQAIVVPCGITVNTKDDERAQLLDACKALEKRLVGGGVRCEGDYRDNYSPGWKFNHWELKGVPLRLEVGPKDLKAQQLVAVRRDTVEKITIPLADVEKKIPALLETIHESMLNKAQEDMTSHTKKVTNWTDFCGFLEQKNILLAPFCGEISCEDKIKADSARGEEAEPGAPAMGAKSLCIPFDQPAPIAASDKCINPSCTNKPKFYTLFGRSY
# UniProt Q9I7T7: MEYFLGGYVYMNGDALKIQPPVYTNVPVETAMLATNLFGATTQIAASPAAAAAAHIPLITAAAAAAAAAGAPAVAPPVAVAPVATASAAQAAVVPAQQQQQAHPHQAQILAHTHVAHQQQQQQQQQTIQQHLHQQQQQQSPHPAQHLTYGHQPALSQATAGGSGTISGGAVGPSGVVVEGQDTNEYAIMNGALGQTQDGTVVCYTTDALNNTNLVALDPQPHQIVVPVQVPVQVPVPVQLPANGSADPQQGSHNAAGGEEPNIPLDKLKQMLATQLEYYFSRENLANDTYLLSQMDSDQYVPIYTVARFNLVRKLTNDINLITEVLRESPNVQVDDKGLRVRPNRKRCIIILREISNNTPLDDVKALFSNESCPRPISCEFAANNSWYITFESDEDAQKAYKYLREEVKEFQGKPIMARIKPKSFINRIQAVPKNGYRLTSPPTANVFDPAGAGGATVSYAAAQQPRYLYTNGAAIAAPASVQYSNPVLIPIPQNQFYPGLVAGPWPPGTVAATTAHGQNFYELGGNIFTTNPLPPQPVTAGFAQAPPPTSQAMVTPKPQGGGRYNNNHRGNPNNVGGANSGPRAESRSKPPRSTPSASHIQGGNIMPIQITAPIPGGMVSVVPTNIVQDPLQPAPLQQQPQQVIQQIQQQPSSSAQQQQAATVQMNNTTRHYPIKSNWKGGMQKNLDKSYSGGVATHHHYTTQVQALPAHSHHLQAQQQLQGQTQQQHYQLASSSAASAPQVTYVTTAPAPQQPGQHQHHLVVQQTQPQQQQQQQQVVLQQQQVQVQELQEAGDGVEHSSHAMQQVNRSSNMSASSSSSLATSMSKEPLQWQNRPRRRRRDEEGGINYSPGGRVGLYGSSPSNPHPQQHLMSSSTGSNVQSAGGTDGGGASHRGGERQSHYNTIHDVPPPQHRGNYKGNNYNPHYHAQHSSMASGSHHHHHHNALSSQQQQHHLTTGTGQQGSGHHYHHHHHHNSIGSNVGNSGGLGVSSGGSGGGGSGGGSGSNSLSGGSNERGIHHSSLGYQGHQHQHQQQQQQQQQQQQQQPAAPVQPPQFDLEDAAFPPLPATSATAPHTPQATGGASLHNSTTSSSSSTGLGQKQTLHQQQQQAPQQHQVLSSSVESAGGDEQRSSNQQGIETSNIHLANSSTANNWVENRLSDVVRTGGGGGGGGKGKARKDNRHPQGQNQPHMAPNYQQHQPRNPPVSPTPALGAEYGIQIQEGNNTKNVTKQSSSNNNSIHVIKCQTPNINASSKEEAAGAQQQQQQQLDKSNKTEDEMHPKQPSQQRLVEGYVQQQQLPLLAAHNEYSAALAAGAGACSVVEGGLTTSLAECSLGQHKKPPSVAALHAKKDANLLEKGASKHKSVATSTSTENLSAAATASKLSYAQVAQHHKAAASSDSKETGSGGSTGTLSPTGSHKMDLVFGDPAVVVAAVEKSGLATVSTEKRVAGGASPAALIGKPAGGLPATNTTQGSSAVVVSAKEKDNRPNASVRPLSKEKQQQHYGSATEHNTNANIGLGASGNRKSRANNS
# B1: R2D2 (protein, UniProt Q9VLW8 1-311)
# chain: MDNKSAVSALQEFCARTQINLPTYSFIPGEDGGYVCKVELLEIEALGNGRSKRDAKHLAASNILRKIQLLPGIHGLMKDSTVGDLDEELTNLNRDMVKELRDYCVRREMPLPCIEVVQQSGTPSAPEFVACCSVASIVRYGKSDKKKDARQRAAIEMLALISSNSDNLRPDQMQVASTSKLKVVDMEESMEELEALRRKKFTTYWELKEAGSVDHTGMRLCDRHNYFKNFYPTLKKEAIEAINSDEYESSKDKAMDVMSSLKITPKISEVESSSLVPLLSVELNCAFDVVLMAKETDIYDHIIDYFRTMLI
# B2: Exuperantia (Exu) (protein, UniProt P28750 1-532)
# chain: MVADNIDAGVAIAVADQSSSPVGDKVELPAGNYILVGVDIDTTGRRLMDEIVQLAAYTPTDHFEQYIMPYMNLNPAARQRHQVRVISIGFYRMLKSMQTYKIIKSKSEIAALKDFLNWLEQLKTKAGPSSDGIVLIYHEERKFIPYMILESLKKYGLLERFTASVKSFANSINLAKASIGDANIKNYSLRKLSKILSTTKEEDAACSASTSGSGSGLGSGSSMVSDSVSISPRDSTVTNGDDKQSSKNAVQGKRELFDGNASVRAKLAFDVALQLSNSDGKPEPKSSEALENMFNAIRPFAKLVVSDVLELDIQIENLERQNSFRPVFLNYFKTTLYHRVRAVKFRIVLAENGFDLNTLSAIWAEKNIEGLDIALQSIGRLKSKDKAELLELLDSYFDPKKTTVKPVVKGNSNNNNNYRRRNRRGGRQSVKDARPSSSPSASTEFGAGGDKSRSVSSLPDSTTKTPSPNKPRMHRKRNSRQSLGATPNGLKVAAEISSSGVSELNNSAPPAVTISPVVAQPSPTPVAITASN
# B3: Arc1 (protein, UniProt Q7K1U0 1-254)
# chain: MAQLTQMTNEQLRELIEAVRAAAVGAAGSAAAAGGADASRGKGNFSACTHSFGGTRDHDVVEEFIGNIETYKDVEGISDENALKGISLLFYGMASTWWQGVRKEATTWKEAIALIREHFSPTKPAYQIYMEFFQNKQDDHDPIDTFVIQKRALLAQLPSGRHDEETELDLLFGLLNIKYRKHISRHSVHTFKDLLEQGRIIEHNNQEDEEQLATAKNTRGSKRTTRCTYCSFRGHTFDNCRKRQKDRQEEQHEE
# B4: NorpA (protein, UniProt P13217 1-1095)
# chain: MTKKYEFDWIIPVPPELTTGCVFDRWFENEKETKENDFERDALFKVDEYGFFLYWKSEGRDGDVIELCQVSDIRAGGTPKDPKILDKVTKKNGTNIPELDKRSLTICSNTDYINITYHHVICPDAATAKSWQKNLRLITHNNRATNVCPRVNLMKHWMRLSYCVEKSGKIPVKTLAKTFASGKTEKLVYTCIKDAGLPDDKNATMTKEQFTFDKFYALYHKVCPRNDIEELFTSITKGKQDFISLEQFIQFMNDKQRDPRMNEILYPLYEEKRCTEIINDYELDEEKKKNVQMSLDGFKRYLMSDENAPVFLDRLDFYMEMDQPLAHYYINSSHNTYLSGRQIGGKSSVEMYRQTLLAGCRCVELDCWNGKGEDEEPIVTHGHAYCTEILFKDCIQAIADCAFVSSEYPVILSFENHCNRAQQYKLAKYCDDFFGDLLLKEPLPDHPLDPGLPLPPPCKLKRKILIKNKRMKPEVEKVELELWLKGELKTDDDPEEDASAGKPPEAAAAPAPAPEAAAAAEGAAEGGGGAEAEAAAANYSGSTTNVHPWLSSMVNYAQPIKFQGFDKAIEKNIAHNMSSFAESAGMNYLKQSSIDFVNYNKRQMSRIYPKGTRADSSNYMPQVFWNAGCQMVSLNFQSSDLPMQLNQGKFEYNGGCGYLLKPDFMRRADKDFDPFADAPVDGVIAAQCSVKVIAGQFLSDKKVGTYVEVDMFGLPSDTVKKEFRTRLVANNGLNPVYNEDPFVFRKVVLPDLAVLRFGVYEESGKILGQRILPLDGLQAGYRHVSLRTEANFPMSLPMLFVNIELKIYVPDGFEDFMAMLSDPRGFAGAAKQQNEQMKALGIEEQSGGAARDAGKAKEEEKKEPPLVFEPVTLESLRQEKGFQKVGKKQIKELDTLRKKHAKERTSVQKTQNAAIDKLIKGKSKDDIRNDANIKNSINDQTKQWTDMIARHRKEEWDMLRQHVQDSQDAMKALMLTVQAAQIKQLEDRHARDIKDLNAKQAKMSADTAKEVQNDKTLKTKNEKDRRLREKRQNNVKRFMEEKKQIGVKQGRAMEKLKLAHSKQIEEFSTDVQKLMDMYKIEEEAYKTQGKTEFYA
# B5: Me31B (protein, UniProt P23128 1-459)
# chain: MMTEKLNSGHTNLTSKGIINDLQIAGNTSDDMGWKSKLKLPPKDNRFKTTDVTDTRGNEFEEFCLKRELLMGIFEKGWERPSPIQEAAIPIALSGKDVLARAKNGTGKTGAYCIPVLEQIDPTKDYIQALVMVPTRELALQTSQICIELAKHLDIRVMVTTGGTILKDDILRIYQKVQLIIATPGRILDLMDKKVADMSHCRILVLDEADKLLSLDFQGMLDHVILKLPKDPQILLFSATFPLTVKNFMEKHLREPYEINLMEELTLKGVTQYYAFVQERQKVHCLNTLFSKLQINQSIIFCNSTQRVELLAKKITELGYCCYYIHAKMAQAHRNRVFHDFRQGLCRNLVCSDLFTRGIDVQAVNVVINFDFPRMAETYLHRIGRSGRFGHLGIAINLITYEDRFDLHRIEKELGTEIKPIPKVIDPALYVANVGASVGDTCNNSDLNNSANEEGNVSK
# B6: CkIα (protein, UniProt P54367 1-337)
# chain: MDKMRILKESRPEIIVGGKYRVIRKIGSGSFGDIYLGMSIQSGEEVAIKMESAHARHPQLLYEAKLYRILSGGVGFPRIRHHGKEKNFNTLVMDLLGPSLEDLFNFCTRHFTIKTVLMLVDQMIGRLEYIHLKCFIHRDIKPDNFLMGIGRHCNKLFLIDFGLAKKFRDPHTRHHIVYREDKNLTGTARYASINAHLGIEQSRRDDMESLGYVMMYFNRGVLPWQGMKANTKQQKYEKISEKKMSTPIEVLCKGSPAEFSMYLNYCRSLRFEEQPDYMYLRQLFRILFRTLNHQYDYIYDWTMLKQKTHQGQPNPAILLEQLDKDKEKQNGKPLIAD
# B7: Argonaute2 (AGO2) (protein, UniProt Q9VUQ5 1-1214)
# chain: MGKKDKNKKGGQDSAAAPQPQQQQKQQQQRQQQPQQLQQPQQLQQPQQLQQPQQQQQQQPHQQQQQSSRQQPSTSSGGSRASGFQQGGQQQKSQDAEGWTAQKKQGKQQVQGWTKQGQQGGHQQGRQGQDGGYQQRPPGQQQGGHQQGRQGQEGGYQQRPPGQQQGGHQQGRQGQEGGYQQRPSGQQQGGHQQGRQGQEGGYQQRPPGQQQGGHQQGRQGQEGGYQQRPSGQQQGGHQQGRQGQEGGYQQRPPGQQQGGHQQGRQGQEGGYQQRPPGQQQGGHEQGRQGQEGGYQQRPSGQQQGGHQQGRQGQEGGYQQRPSGQQQGGHQQGRQGQEGGYQQRPSGQQQGGHQQGRQGQEGGYQQRPPGQQPNQTQSQGQYQSRGPPQQQQAAPLPLPPQPAGSIKRGTIGKPGQVGINYLDLDLSKMPSVAYHYDVKIMPERPKKFYRQAFEQFRVDQLGGAVLAYDGKASCYSVDKLPLNSQNPEVTVTDRNGRTLRYTIEIKETGDSTIDLKSLTTYMNDRIFDKPMRAMQCVEVVLASPCHNKAIRVGRSFFKMSDPNNRHELDDGYEALVGLYQAFMLGDRPFLNVDISHKSFPISMPMIEYLERFSLKAKINNTTNLDYSRRFLEPFLRGINVVYTPPQSFQSAPRVYRVNGLSRAPASSETFEHDGKKVTIASYFHSRNYPLKFPQLHCLNVGSSIKSILLPIELCSIEEGQALNRKDGATQVANMIKYAATSTNVRKRKIMNLLQYFQHNLDPTISRFGIRIANDFIVVSTRVLSPPQVEYHSKRFTMVKNGSWRMDGMKFLEPKPKAHKCAVLYCDPRSGRKMNYTQLNDFGNLIISQGKAVNISLDSDVTYRPFTDDERSLDTIFADLKRSQHDLAIVIIPQFRISYDTIKQKAELQHGILTQCIKQFTVERKCNNQTIGNILLKINSKLNGINHKIKDDPRLPMMKNTMYIGADVTHPSPDQREIPSVVGVAASHDPYGASYNMQYRLQRGALEEIEDMFSITLEHLRVYKEYRNAYPDHIIYYRDGVSDGQFPKIKNEELRCIKQACDKVGCKPKICCVIVVKRHHTRFFPSGDVTTSNKFNNVDPGTVVDRTIVHPNEMQFFMVSHQAIQGTAKPTRYNVIENTGNLDIDLLQQLTYNLCHMFPRCNRSVSYPAPAYLAHLVAARGRVYLTGTNRFLDLKKEYAKRTIVPEFMKKNPMYFV
# Columns and labels:
# [1] = target: GFP::Dicer-2^WT (Drosophila melanogaster) (UniProt A1ZAW0); test: affinity purification with mass spectrometry; second IP-MS, lysate of adult flies treated with 15 µg RNase A for 30 min at 4°C before the anti-GFP IP; GFP::Dicer-2^WT against Ctrl-GFP
# [2] = target: GFP::Dicer-2^WT (Drosophila melanogaster) (UniProt A1ZAW0); test: affinity purification with mass spectrometry; anti-GFP beads (Miltenyi) on lysates of adult flies injected with TRIS (mock) or DCV (500 PFU), 2 or 3 days; 30 mM HEPES KOH pH 7.5, 50 mM NaCl, 2 mM Mg(OAc)2, 1% NP40 (washes 0.1% NP40), 4°C; LC-MS/MS, enrichment against Ctrl-WT + Ctrl-GFP; also the untreated half of the second IP-MS (against Ctrl-GFP); low stringency
# [3] = target: GFP::Dicer-2^WT (Drosophila melanogaster) (UniProt A1ZAW0); test: as above; remark: listed apart in the source
molecule,measurement,setting,value
Lost (from UniProt Q9VN21),binding,[1],binds
same,binding,[2],binds
Rm62 (from UniProt P19109 1-719),binding,[2],binds
Aats-glupro (from UniProt P28668 1-1714),binding,[2],binds
Larp4B (from UniProt Q9I7T7 1-1531),binding,[2],binds
B1,binding,[1],binds
same,binding,[3],binds
B2,binding,[3],binds
B3,binding,[3],binds
B4,binding,[3],binds
B5,binding,[3],binds
B6,binding,[3],binds
B7,binding,[3],binds

# No constants are given. Whether binding was seen depends on the method and setting. In cells and extracts the contact can be indirect. Here binding means that the protein was enriched with, or labelled near, the bait; the list need not be complete.
